These results are taken from article PMC12509343.

Data set [1] has as its system CmVNI2 (GST-CmVNI2) (Chrysanthemum morifolium). Description: competition with a labelled probe. As to conditions: cold competitor, dose-dependent, EMSA: room temperature, 30 min, 6% native PAGE, 0.5x TBE, 60 V, 4 C, binding buffer, salt and pH not stated, recombinant protein, protein details: N-terminal GST (pGEX-4T-2). (In EMSA bound probe runs differently from free probe, usually more slowly.)

For data set [2] the test system is unchanged. The data set can be described thus: EMSA. As to conditions: 1 ug protein, 2 nM probe; EMSA: room temperature, 30 min; 6% native PAGE, 0.5x TBE, 60 V, 4 C; binding buffer, salt and pH not stated; recombinant protein; protein details: N-terminal GST (pGEX-4T-2); label: 5' biotin.

Construct, isoform or probe ends are uncertain for at least one entry.

As to “CCAACATTACGTACAAAACA (double strand) [CmF3H promoter competitor (cold)]”, the binding result in data set [1] (vs biotin-CmF3H probe) is “binds”.
For the sequence “TTTTAGTCTTACGTACATAA (double strand) [CmMYB3 promoter probe]”, in data set [2], the binding result was “binds”.
Regarding “CCAACATTACGTACAAAACA (double strand) [CmF3H promoter probe]”, the binding result in data set [2] is on record as “binds”.
In the case of “TTTTAGTCTTACGTACATAA (double strand) [CmMYB3 promoter competitor (cold)]”, in data set [1] (vs biotin-CmMYB3 probe), the binding result was “binds”.
